# These are yes or no findings as the source states them, for the method shown. Binding seen in cells or lysates may run through a third protein. Some results given as binding are weak or reduced against the parent protein; the word gives no strength. Sequences can lack the tags named with a protein.
# T1: SFB-ZEB1, triple-epitope (S-protein, FLAG tag, and streptavidin-binding peptide)-tagged zinc finger E-box-binding homeobox 1 (UniProt P37275)
# T1 sequence: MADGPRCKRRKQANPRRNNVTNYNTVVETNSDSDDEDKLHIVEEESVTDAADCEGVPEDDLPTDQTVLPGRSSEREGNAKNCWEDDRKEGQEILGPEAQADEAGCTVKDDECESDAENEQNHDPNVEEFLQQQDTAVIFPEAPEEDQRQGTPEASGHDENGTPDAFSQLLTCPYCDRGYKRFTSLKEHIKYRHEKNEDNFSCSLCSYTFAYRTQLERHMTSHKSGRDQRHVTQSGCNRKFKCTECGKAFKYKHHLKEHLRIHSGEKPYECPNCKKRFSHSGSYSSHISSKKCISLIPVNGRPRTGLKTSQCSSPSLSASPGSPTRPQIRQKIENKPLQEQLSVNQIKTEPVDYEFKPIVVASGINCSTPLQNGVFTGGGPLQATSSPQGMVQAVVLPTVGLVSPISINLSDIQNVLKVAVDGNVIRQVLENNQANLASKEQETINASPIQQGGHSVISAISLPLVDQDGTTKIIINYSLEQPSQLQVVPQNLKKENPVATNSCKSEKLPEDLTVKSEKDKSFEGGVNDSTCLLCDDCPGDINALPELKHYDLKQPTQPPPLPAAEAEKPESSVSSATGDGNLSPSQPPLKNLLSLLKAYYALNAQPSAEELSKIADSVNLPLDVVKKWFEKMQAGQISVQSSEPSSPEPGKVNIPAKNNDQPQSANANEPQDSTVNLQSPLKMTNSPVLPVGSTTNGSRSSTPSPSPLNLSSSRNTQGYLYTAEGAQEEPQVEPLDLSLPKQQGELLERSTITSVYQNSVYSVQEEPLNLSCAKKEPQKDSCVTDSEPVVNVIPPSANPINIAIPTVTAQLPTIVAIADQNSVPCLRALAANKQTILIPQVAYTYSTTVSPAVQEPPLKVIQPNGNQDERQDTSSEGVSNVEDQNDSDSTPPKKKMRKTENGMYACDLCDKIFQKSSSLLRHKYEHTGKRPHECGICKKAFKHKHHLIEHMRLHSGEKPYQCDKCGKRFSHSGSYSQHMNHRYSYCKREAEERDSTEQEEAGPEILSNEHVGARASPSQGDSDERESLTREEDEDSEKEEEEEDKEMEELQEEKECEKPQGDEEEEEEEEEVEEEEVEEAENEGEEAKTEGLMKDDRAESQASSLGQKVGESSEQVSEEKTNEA
# T2: MYC-CHFR, full-length checkpoint with forkhead and ring finger domains (human) (UniProt Q96EP1)
# T2 sequence: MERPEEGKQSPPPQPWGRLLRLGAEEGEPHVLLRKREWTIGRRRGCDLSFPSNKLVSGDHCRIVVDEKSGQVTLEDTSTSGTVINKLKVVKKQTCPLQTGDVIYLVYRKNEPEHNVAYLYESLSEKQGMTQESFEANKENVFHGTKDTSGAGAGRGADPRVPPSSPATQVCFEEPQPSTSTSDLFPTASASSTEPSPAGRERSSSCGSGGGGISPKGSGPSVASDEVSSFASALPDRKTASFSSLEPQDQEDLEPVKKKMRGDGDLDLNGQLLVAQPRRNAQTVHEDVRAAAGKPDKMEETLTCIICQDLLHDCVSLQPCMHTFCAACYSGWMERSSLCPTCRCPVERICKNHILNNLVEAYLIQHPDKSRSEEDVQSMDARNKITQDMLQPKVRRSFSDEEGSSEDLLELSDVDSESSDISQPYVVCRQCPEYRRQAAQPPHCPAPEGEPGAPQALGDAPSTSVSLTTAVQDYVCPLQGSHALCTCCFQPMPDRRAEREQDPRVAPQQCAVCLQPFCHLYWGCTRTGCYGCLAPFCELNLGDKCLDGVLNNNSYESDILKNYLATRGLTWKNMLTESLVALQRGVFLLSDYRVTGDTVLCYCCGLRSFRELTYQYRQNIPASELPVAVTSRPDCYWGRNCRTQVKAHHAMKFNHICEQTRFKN
# What was measured:
# [1] = target: T1, SFB-ZEB1, triple-epitope (S-protein, FLAG tag, and streptavidin-binding peptide)-tagged zinc finger E-box-binding homeobox 1; assay: co-IP; HEK293T co-transfected; lysis in NETN buffer (100 mM NaCl, 1 mM EDTA, 20 mM Tris-HCl pH 8.0, 0.5% Nonidet P-40); SFB-tagged protein pulled down on streptavidin-Sepharose beads, 4 °C, 2 h; immunoblot
# [2] = target: T2, MYC-CHFR, full-length checkpoint with forkhead and ring finger domains (human); assay: co-IP; HEK293T co-transfected; lysis in NETN buffer (100 mM NaCl, 1 mM EDTA, 20 mM Tris-HCl pH 8.0, 0.5% Nonidet P-40); MYC-tagged protein precipitated on anti-Myc magnetic beads, 4 °C, 2 h; immunoblot
binder,measurement,setting,value
"MYC-CHFR, full-length checkpoint with forkhead and ring finger domains (enzyme, UniProt Q96EP1 1-664) MERPEEGKQSPPPQPWGRLLRLGAEEGEPHVLLRKREWTIGRRRGCDLSFPSNKLVSGDHCRIVVDEKSGQVTLEDTSTSGTVINKLKVVKKQTCPLQTGDVIYLVYRKNEPEHNVAYLYESLSEKQGMTQESFEANKENVFHGTKDTSGAGAGRGADPRVPPSSPATQVCFEEPQPSTSTSDLFPTASASSTEPSPAGRERSSSCGSGGGGISPKGSGPSVASDEVSSFASALPDRKTASFSSLEPQDQEDLEPVKKKMRGDGDLDLNGQLLVAQPRRNAQTVHEDVRAAAGKPDKMEETLTCIICQDLLHDCVSLQPCMHTFCAACYSGWMERSSLCPTCRCPVERICKNHILNNLVEAYLIQHPDKSRSEEDVQSMDARNKITQDMLQPKVRRSFSDEEGSSEDLLELSDVDSESSDISQPYVVCRQCPEYRRQAAQPPHCPAPEGEPGAPQALGDAPSTSVSLTTAVQDYVCPLQGSHALCTCCFQPMPDRRAEREQDPRVAPQQCAVCLQPFCHLYWGCTRTGCYGCLAPFCELNLGDKCLDGVLNNNSYESDILKNYLATRGLTWKNMLTESLVALQRGVFLLSDYRVTGDTVLCYCCGLRSFRELTYQYRQNIPASELPVAVTSRPDCYWGRNCRTQVKAHHAMKFNHICEQTRFKN",binding,[1],binds
"SFB-ZEB1, triple-epitope (S-protein, FLAG tag, and streptavidin-binding peptide)-tagged zinc finger E-box-binding homeobox 1 (protein, UniProt P37275 1-1124) MADGPRCKRRKQANPRRNNVTNYNTVVETNSDSDDEDKLHIVEEESVTDAADCEGVPEDDLPTDQTVLPGRSSEREGNAKNCWEDDRKEGQEILGPEAQADEAGCTVKDDECESDAENEQNHDPNVEEFLQQQDTAVIFPEAPEEDQRQGTPEASGHDENGTPDAFSQLLTCPYCDRGYKRFTSLKEHIKYRHEKNEDNFSCSLCSYTFAYRTQLERHMTSHKSGRDQRHVTQSGCNRKFKCTECGKAFKYKHHLKEHLRIHSGEKPYECPNCKKRFSHSGSYSSHISSKKCISLIPVNGRPRTGLKTSQCSSPSLSASPGSPTRPQIRQKIENKPLQEQLSVNQIKTEPVDYEFKPIVVASGINCSTPLQNGVFTGGGPLQATSSPQGMVQAVVLPTVGLVSPISINLSDIQNVLKVAVDGNVIRQVLENNQANLASKEQETINASPIQQGGHSVISAISLPLVDQDGTTKIIINYSLEQPSQLQVVPQNLKKENPVATNSCKSEKLPEDLTVKSEKDKSFEGGVNDSTCLLCDDCPGDINALPELKHYDLKQPTQPPPLPAAEAEKPESSVSSATGDGNLSPSQPPLKNLLSLLKAYYALNAQPSAEELSKIADSVNLPLDVVKKWFEKMQAGQISVQSSEPSSPEPGKVNIPAKNNDQPQSANANEPQDSTVNLQSPLKMTNSPVLPVGSTTNGSRSSTPSPSPLNLSSSRNTQGYLYTAEGAQEEPQVEPLDLSLPKQQGELLERSTITSVYQNSVYSVQEEPLNLSCAKKEPQKDSCVTDSEPVVNVIPPSANPINIAIPTVTAQLPTIVAIADQNSVPCLRALAANKQTILIPQVAYTYSTTVSPAVQEPPLKVIQPNGNQDERQDTSSEGVSNVEDQNDSDSTPPKKKMRKTENGMYACDLCDKIFQKSSSLLRHKYEHTGKRPHECGICKKAFKHKHHLIEHMRLHSGEKPYQCDKCGKRFSHSGSYSQHMNHRYSYCKREAEERDSTEQEEAGPEILSNEHVGARASPSQGDSDERESLTREEDEDSEKEEEEEDKEMEELQEEKECEKPQGDEEEEEEEEEVEEEEVEEAENEGEEAKTEGLMKDDRAESQASSLGQKVGESSEQVSEEKTNEA",binding,[2],binds

# From paper PMC8405615
